Test results published in PubChem BioAssay AID504467 (National Center for Advancing Translational Sciences (NCATS), 2011).
Out of some 330,000 compounds screened, about 7,700 (2.3%) were called active. This list was built around the results that the source calls inconclusive (neither active nor inactive); the mix of calls is not that of the screen. The call rests on the fitted dose curve; in most records, active means well fitted inhibition curve with a large enough effect; inconclusive means small, poorly fitted or top-dose-only effect, or effect the other way; inactive means flat fitted curve, though single readings scatter. Potencies of inconclusive entries are doubtful fits and often do not repeat.

Assay: qHTS screen for small molecules that inhibit ELG1-dependent DNA repair in human embryonic kidney (HEK293T) cells expressing luciferase-tagged ELG1; further: nearly all actives have a fitted effect of over 55% in size
Conditions: HEK293T ELG1-luciferase reporter, luminescence, 16 h, DNA damage induced by 5-fluorouridine; activity change, negative = inhibition: at 46.1 µM (top of the series)
How it was run: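 In this reporter screen, reduction of luminescence relative to DMSO vehicle indicated activity. Compounds and 5-fluorouridine were added together to 2,000 cells per well, incubated for 16 hr at 37 °C, then developed with ONE-Glo.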
On the % scale 0 is the no-effect control and ±100 the full control effect; potency means the concentration at half of the fitted maximal effect.

Compound	Potency	activity change, negative = inhibition
COC(=O)Nc1nc(-c2ccc(F)cc2)c(C)s1	inconclusive: 29.1 µM [activator, single point]	–
Cc1noc(C)c1C(=O)Nc1ccc(F)c(F)c1	inconclusive: 13 µM [activator, partial curve, poor fit]	–
CCCCC(CC)C(=O)Nc1cc(C(=O)NCCC)ccc1N1CCC2(CC1)CC(c1ccccc1)=NO2 (configuration not stated)	inconclusive: 23.1 µM [inhibitor, single point]	–
COc1ccc(NC(=O)c2[nH]c(C)c(C(C)=O)c2C)cc1	inconclusive: 20.6 µM [activator, partial curve]	–
COc1ccc(N2CCN(C(=O)CN3C(=O)NC(C)(c4ccc5ccccc5c4)C3=O)CC2)cc1 (configuration not stated)	inconclusive: 18.3 µM [inhibitor, partial curve, poor fit]	–
CN(C)c1ccc(C(=O)OCC(=O)NCC2CCCO2)cc1 (configuration not stated)	inconclusive: 25.9 µM [activator, partial curve, poor fit]	–
CC(=O)Nc1ccccc1OCCOc1ccc(Br)cc1	inconclusive: 25.9 µM [inhibitor, single point]	–
O=C(Nc1nc(-c2ccc(S(=O)(=O)N3CCCCCC3)cc2)cs1)c1cccs1	active: 13 µM	–
COc1ccc(OC)c(Nc2nc(-c3sc(N)nc3C)cs2)c1	active: 11.6 µM	–
CCOC(=O)c1sc(-c2ccc(F)cc2)cc1N	inconclusive: 20.6 µM [activator, partial curve]	–
CCc1noc(C)c1C(=O)N(CC)CC(=O)Nc1ccccc1C(F)(F)F	–	inactive: 9.31%
O=C(CCNC(=O)c1ccc([N+](=O)[O-])cc1)Nc1cccc(S(=O)(=O)N2CCCCCC2)c1	inconclusive: 11.6 µM [inhibitor, partial curve, poor fit]	–
O=C(NC1CCCCC1)C(=O)c1c[nH]c2ccccc12	inconclusive: 14.6 µM [activator, partial curve]	–
Cc1cc(C(=O)NCCCN(C)C)c2ccccc2n1	–	inactive: 16.3%
Cc1ccc2c(c1)cc(CN(Cc1ccc3c(c1)OCO3)S(=O)(=O)c1ccccc1)c1nnnn12	inconclusive: 14.6 µM [inhibitor, partial curve]	–
COc1ccccc1Nc1nc(-c2ccc3c(c2)NC(=O)CO3)cs1	inconclusive: 29.1 µM [inhibitor, single point]	–
NC(=O)c1cc[n+](CC(=O)NC(=O)Nc2ccccc2)cc1	inconclusive: 6.51 µM [activator, partial curve, poor fit]	–
COc1ccc(/C=C2/SC(=S)NC2=O)cc1OCc1ccccc1	inconclusive: 14.6 µM [inhibitor, single point]	–
Cc1ccc(-c2nnc(/C=C/c3ccccc3)o2)cc1	inconclusive: 18.4 µM [activator, partial curve]	–
Oc1ccc(Br)cc1C=Nc1ccc2[nH]ncc2c1	inconclusive: 0.184 µM [inhibitor, partial curve, poor fit]	–
CCn1cc(C(=O)O)c(=O)c2cc(F)c(N3CCN(C(=S)NC(=O)c4cccc(F)c4)CC3)cc21	–	inactive: -5.72%
O=C(CCc1ccccc1)Nc1ccc(NC(=O)c2ccco2)cc1	inconclusive: 12.6 µM [activator, single point]	–
COc1cccc(NC(=O)N2CCCCCC2)c1	–	inactive: 0%

Among those listed so far, these contain fluorine:
Compound	Potency	activity change, negative = inhibition
COC(=O)Nc1nc(-c2ccc(F)cc2)c(C)s1	inconclusive: 29.1 µM [activator, single point]	–
Cc1noc(C)c1C(=O)Nc1ccc(F)c(F)c1	inconclusive: 13 µM [activator, partial curve, poor fit]	–
CCOC(=O)c1sc(-c2ccc(F)cc2)cc1N	inconclusive: 20.6 µM [activator, partial curve]	–
CCc1noc(C)c1C(=O)N(CC)CC(=O)Nc1ccccc1C(F)(F)F	–	inactive: 9.31%
CCn1cc(C(=O)O)c(=O)c2cc(F)c(N3CCN(C(=S)NC(=O)c4cccc(F)c4)CC3)cc21	–	inactive: -5.72%

Additional structures:

Compound	Potency	activity change, negative = inhibition
COc1ccc(-n2nc(C(=O)NCC(=O)NC3CCCCC3)c3ccccc3c2=O)cc1	inconclusive: 25.9 µM [inhibitor, partial curve, poor fit]	–
CCc1ccc(C(=O)Nc2cc3c(cc2Cl)OCCCO3)cc1	inconclusive: 8.2 µM [activator, partial curve]	–
C=CCNC(=O)c1onc(CSc2ccc(Cl)cc2)c1C(=O)O	inconclusive: 29.1 µM [activator, partial curve, poor fit]	–
O=C1CN(S(=O)(=O)c2cc(Cl)ccc2Cl)c2ccccc2N1	inconclusive: 29.1 µM [inhibitor, single point]	–
CCn1c(=O)cc(SCC(=O)NCCCN2CCN(c3ccccc3F)CC2)c2ccccc21	inconclusive: 23.1 µM [activator, single point]	–
CCOC(=O)c1c(C)c(C(=O)NC2CCCCCC2)c(C)n1C	inconclusive: 6.51 µM [activator, partial curve, poor fit]	–
Cc1cc2n(n1)C(c1ccc3c(c1)OCO3)Nc1c(C)cccc1-2 (configuration not stated)	–	inactive: -0.498%
O=C(Nc1cccs1)Nc1cccnc1Cl	inconclusive: 0.58 µM [inhibitor, partial curve, poor fit]	–
COc1cccc(Nc2nc(CN3CCOCC3)nc3sc4c(c23)CCCC4)c1	active: 10.3 µM	–
CCNc1nnc(CCn2nc(C)c(Br)c2C)s1	inconclusive: 23.1 µM [activator, partial curve, poor fit]	–
CC1CCN(C(=S)c2cn(Cc3cccc(F)c3)c3ccccc23)CC1	–	inactive: 3.74%
CC(=O)Nc1ccc(NC(=O)CSc2nnc3ccc(-c4ccc(F)cc4)nn23)cc1	inconclusive: 4.11 µM [inhibitor, single point]	–
O=C(c1ccccc1)c1ccccc1NC(=O)C1CCCN1Cc1ccccc1 (configuration not stated)	inconclusive: 29.1 µM [inhibitor, single point]	–
COc1ccc(NCc2nnc(SCCN3CCCCC3)n2-c2ccc(C)cc2)cc1	inconclusive: 4.11 µM [inhibitor, full curve]	–
CC(C)CCNC(=O)CCCCn1c(=O)[nH]c2ccsc2c1=O	–	inactive: 3.56%
COc1ccc(S(=O)(=O)N(C)C[C@H]2Oc3ccc(NS(=O)(=O)c4cccs4)cc3CC(=O)N([C@H](C)CO)C[C@H]2C)cc1	inconclusive: 5.8 µM [inhibitor, partial curve]	–
CC(C)CNC(=O)C1CCN(S(=O)(=O)c2ccc3c(c2)OCCO3)CC1	–	inactive: 27.2%
COc1cc(C2=CN(Cc3ccccc3)CCC2=O)cc(OC)c1OC	inconclusive: 18.3 µM [activator, partial curve, poor fit]	–
CCCc1nnc(NC(=O)CCC(=O)N2CCN(Cc3ccc(C)cc3C)CC2)s1	inconclusive: 29.1 µM [inhibitor, single point]	–
CCCCn1c(N)c(N(CCC(C)C)C(=O)C2=NN(c3cc(C)ccc3C)C(=O)CC2)c(=O)[nH]c1=O	–	inactive: 12.3%
Cc1cc(OCc2cc(C(=O)NCc3cc(C(C)C)no3)no2)cc(C)c1Cl	inconclusive: 9.2 µM [activator, partial curve]	–
CCCCC(Br)C(=O)Nc1ccc(S(=O)(=O)Nc2cc(C)nc(C)n2)cc1 (configuration not stated)	–	inactive: 13.3%
CC(C)c1ccc(NC(=O)C2C3C=CC4(O3)C2C(=O)N(CCCN2CCCCC2)C4C(=O)NC2CCCCC2)cc1 (configuration not stated)	inconclusive: 25.9 µM [activator, partial curve, poor fit]	–

Compound	Potency	activity change, negative = inhibition
O=C(Cc1c[nH]c2ccccc12)N/N=C/c1ccccc1O	inconclusive: 16.4 µM [inhibitor, single point]	–
CCn1c(=O)c(C(=O)NCCc2ccccc2)c(O)c2ccccc21	–	inactive: -7.25%
Nc1ncnc2c1ncn2[C@@H]1O[C@H](CNS(=O)(=O)c2cc3ccccc3s2)[C@@H](O)[C@H]1O	inconclusive: 9.2 µM [inhibitor, partial curve]	–
COCCN(C(=O)CSc1nnc(-c2ccccc2F)o1)c1c(N)n(CC(C)C)c(=O)[nH]c1=O	–	inactive: 7.46%
CC1C(=O)CC(c2ccco2)NC1c1ccco1 (configuration not stated)	inconclusive: 23.1 µM [activator, single point]	–
Cn1c(-c2cc(Br)ccc2O)n[nH]c1=S	–	inactive: 5.36%
Cc1sc2ncn(CC(=O)NCc3ccccc3)c(=O)c2c1C	inconclusive: 14.6 µM [inhibitor, partial curve, poor fit]	–
Cc1ccc(S(=O)(=O)NCC(c2ccc3c(c2)OCO3)N2CCOCC2)cc1 (configuration not stated)	–	inactive: 8.37%
O=C(N=C1SCC(=O)N1c1ccccc1Cl)c1ccccc1	inconclusive: 18.3 µM [activator, partial curve]	–
CC(C)c1ccc(C2C3=C(CC(C)(C)CC3=O)NC3=C2C(=O)c2ccccc23)cc1 (configuration not stated)	inconclusive: 20.6 µM [inhibitor, single point]	–
COc1cccc(N(CC(=O)N/N=C(\C)c2cccs2)S(C)(=O)=O)c1	–	inactive: -3.28%
COc1cc(/C=N/NC(N)=S)ccc1OCc1ccc(C)cc1	inconclusive: 7.31 µM [inhibitor, partial curve]	–
CCn1c(C)nc2cc(C(N)=O)ccc21	–	inactive: 0.96%
Cc1cc(N(CN2CCCC2=O)C(=O)c2ccc(OC(C)C)cc2)no1	inconclusive: 18.3 µM [activator, partial curve, poor fit]	–
c1ccn2cc(CSC3=NCCS3)nc2c1	inconclusive: 20.6 µM [activator, partial curve]	–
Nc1cccc(C(=O)N/N=C/c2ccsc2)c1	inconclusive: 23.1 µM [activator, single point]	–
O=S(=O)(c1ccccc1Cl)N1CCC(O)(c2cccnc2)CC1	–	inactive: -4.79%
CCOc1cccc(C(=O)NC2=NCCS2)c1	inconclusive: 8.2 µM [activator, partial curve]	–
COc1cccc(NC(=O)CN2C(=O)CSc3ccc(S(=O)(=O)N4CCC(C)CC4)cc32)c1	inconclusive: 32.6 µM [inhibitor, single point]	–
Cc1ccc(-c2[nH]ncc2C(=O)c2cccc(F)c2)c(O)c1	inconclusive: 20.6 µM [inhibitor, partial curve]	–
COc1cc(NC(=O)c2ccccc2)c(OC)cc1NC(=O)Cc1ccccc1	inconclusive: 23.1 µM [inhibitor, partial curve, poor fit]	–
